The target in assay [1] is Flag-tagged CCNB1 (UniProt P14635). Put plainly: co-IP; transiently transfected HCT116 cells; RIPA lysis buffer with protease inhibitor; indicated antibody (1 ug/ml) and protein G-sepharose; immunoblotting; in Figure 5g cells with control or CDC20-specific siRNA.
Assay [2] has as its target T1, GST-USP22 fusion protein (UniProt Q9UPT9).
T1 sequence: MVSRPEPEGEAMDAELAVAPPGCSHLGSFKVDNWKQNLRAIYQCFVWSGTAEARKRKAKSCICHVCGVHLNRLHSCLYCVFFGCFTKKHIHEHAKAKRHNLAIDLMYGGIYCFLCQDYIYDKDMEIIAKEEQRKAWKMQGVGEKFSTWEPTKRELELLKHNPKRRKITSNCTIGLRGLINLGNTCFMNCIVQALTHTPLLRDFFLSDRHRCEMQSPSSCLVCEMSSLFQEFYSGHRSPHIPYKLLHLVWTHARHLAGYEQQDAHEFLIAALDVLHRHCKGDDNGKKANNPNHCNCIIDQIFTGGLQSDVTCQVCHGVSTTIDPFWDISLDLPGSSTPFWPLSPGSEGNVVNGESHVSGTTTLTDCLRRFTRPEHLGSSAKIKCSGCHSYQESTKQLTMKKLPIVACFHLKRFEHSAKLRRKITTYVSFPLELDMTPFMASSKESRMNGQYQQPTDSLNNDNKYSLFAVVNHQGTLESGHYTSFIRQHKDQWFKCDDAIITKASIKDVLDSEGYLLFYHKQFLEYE
Briefly: pull-down; lysate of HCT116 cells transfected with Flag-tagged CCNB1 (48 h) incubated with GST-USP22 or GST-USP10 and GSH-Sepharose; retained proteins blotted; only the target purified.

By UniProt entry, the sequences of proteins in these tests, tags left out.
UniProt P14635: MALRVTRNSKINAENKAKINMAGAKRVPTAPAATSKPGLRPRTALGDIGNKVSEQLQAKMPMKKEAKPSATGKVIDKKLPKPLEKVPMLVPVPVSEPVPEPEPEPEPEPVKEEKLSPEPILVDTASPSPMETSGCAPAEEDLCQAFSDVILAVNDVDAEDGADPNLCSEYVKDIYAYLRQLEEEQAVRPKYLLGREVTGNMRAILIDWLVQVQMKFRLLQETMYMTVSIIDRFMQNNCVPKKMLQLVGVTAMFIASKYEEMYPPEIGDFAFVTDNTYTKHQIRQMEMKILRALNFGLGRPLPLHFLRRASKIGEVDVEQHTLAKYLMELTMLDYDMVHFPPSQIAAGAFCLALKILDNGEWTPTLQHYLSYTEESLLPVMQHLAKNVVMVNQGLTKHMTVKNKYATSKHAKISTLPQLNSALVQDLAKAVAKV
UniProt Q14694: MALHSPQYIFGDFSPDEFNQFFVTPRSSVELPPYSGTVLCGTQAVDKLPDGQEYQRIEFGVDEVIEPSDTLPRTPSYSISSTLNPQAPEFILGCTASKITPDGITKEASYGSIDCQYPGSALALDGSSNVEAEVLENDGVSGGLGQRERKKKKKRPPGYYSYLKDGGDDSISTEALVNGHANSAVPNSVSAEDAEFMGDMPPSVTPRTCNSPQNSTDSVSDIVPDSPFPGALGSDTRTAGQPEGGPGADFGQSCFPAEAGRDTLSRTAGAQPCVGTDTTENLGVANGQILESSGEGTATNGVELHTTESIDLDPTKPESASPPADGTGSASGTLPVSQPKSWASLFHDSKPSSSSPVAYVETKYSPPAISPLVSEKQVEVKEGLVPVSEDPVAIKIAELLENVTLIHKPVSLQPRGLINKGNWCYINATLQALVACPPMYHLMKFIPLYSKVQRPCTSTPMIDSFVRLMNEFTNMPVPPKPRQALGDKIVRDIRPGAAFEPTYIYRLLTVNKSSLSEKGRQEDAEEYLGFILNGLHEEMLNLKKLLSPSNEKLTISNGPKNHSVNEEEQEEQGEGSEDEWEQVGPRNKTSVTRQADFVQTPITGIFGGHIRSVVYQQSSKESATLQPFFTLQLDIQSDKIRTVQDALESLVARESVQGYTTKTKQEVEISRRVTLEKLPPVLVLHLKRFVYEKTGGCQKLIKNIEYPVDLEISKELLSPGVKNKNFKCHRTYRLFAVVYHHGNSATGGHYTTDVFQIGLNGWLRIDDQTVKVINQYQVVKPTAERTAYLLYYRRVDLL
UniProt Q9BQ67: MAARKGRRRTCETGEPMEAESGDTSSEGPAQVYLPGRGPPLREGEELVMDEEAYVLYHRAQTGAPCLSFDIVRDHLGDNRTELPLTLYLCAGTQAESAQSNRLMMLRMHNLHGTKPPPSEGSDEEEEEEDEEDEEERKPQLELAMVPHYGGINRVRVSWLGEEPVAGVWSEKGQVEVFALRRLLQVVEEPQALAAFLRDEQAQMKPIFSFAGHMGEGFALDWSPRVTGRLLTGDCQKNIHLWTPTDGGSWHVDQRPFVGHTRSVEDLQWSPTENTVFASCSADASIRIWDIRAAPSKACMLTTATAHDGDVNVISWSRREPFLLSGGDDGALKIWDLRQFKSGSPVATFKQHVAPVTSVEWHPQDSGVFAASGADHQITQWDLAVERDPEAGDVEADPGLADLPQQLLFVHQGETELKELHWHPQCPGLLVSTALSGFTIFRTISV

Assay [3] addresses GST-USP10 fusion protein (UniProt Q14694). The description is as above.

Results are given in words; binding and its absence hold for the method and conditions named. Binding seen in cells or lysates may run through a third protein. Some results given as binding are weak or reduced against the parent protein; the word gives no strength. For part of these data: Tags and fused reporters may be left off the sequences shown.

As to “GRWD1 (test in transiently transfected HCT116 cells) (from UniProt Q9BQ67 1-446)”, the binding result in assay [1] is “no binding”.

Regarding “Flag-tagged CCNB1 (from UniProt P14635 1-433)”, the results for the binding result in assay [2] and in assay [3] were “binds” and “no binding”, respectively.

Values taken from PMC4809424.
